{
  "source": "patent US20090306228A1",
  "about": "(priority 2000, published 2009)",
  "assay": "peptide synthesis",
  "data": [
    {"substance": "Boc-Gly-Gly-Gly-Gly-Leu-Hydrocodone", "values": [
      {"measurement": "step yield", "setting": "coupling step", "result": 37, "unit": "%"}
    ]},
    {"substance": "Gly-Gly-Gly-Gly-Leu-Hydrocodone", "values": [
      {"measurement": "step yield", "setting": "late stage modification step", "result": 97, "unit": "%"}
    ]}
  ]
}
